Consider two substances from article doi:10.1101/2025.06.20.659510.

Results are given in words; binding and its absence hold for the method and conditions named. Binding calls can cover weak binding; strength is not graded here.

The target in experiment [1] is T1, HAND1 (mouse) (UniProt Q64279).
T1 sequence: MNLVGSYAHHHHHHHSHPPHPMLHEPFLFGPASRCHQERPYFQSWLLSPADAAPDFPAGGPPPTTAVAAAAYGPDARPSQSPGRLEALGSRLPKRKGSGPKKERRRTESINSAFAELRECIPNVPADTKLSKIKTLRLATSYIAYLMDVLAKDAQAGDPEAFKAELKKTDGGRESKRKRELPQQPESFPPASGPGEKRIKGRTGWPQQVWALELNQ
Put plainly: two-hybrid; liquid yeast two-hybrid in S. cerevisiae; pGADT7 Gal4 activation domain-Nkx2-5 (WT or variant) co-transformed with pGBKT7 Gal4 DNA-binding domain-TF (NKX2-5, GATA4, TBX5, TBX20b or HAND1); high stringency liquid medium (-Ade/-His/-Leu/Trp), 30°C, FDG fluorescence at two time-points, T2 normalised to T1; N188K with HAND1 followed out to day 5.

Experiment [2] has as its target T2, TBX5 (mouse) (UniProt P70326).
T2 sequence: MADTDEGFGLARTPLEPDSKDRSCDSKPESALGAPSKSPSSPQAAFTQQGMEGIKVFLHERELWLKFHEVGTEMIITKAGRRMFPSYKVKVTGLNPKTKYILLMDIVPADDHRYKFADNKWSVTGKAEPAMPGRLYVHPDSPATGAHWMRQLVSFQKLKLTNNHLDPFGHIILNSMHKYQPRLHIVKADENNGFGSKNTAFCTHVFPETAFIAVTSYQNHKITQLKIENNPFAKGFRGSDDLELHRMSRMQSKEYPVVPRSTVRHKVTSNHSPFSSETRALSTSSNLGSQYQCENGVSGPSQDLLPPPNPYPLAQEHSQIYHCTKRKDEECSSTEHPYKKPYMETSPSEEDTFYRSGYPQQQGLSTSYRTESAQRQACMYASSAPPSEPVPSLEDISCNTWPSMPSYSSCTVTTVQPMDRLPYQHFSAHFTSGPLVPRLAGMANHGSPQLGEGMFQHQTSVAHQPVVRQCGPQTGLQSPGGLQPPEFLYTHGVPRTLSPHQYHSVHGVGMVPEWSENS
The description is as above.

Take NKX2-5 N188K (mouse): the binding entry in experiment [1] is “binds”; in experiment [2], “binds weakly”.
Consider “NKX2-5 Y259ter (mouse) (domain or fragment)”, for which the binding result in experiment [2] is given as “binds”.
